Experimental data as given in patent EP0604354B1, “Antidepressant and antiparkinsonian compounds” (N[…]/S, priority 1992, dated 1994).
Some of these results come from one statement about several compounds together.

The chains behind the UniProt entries cited, without tags or fusion partners.
UniProt P31645, whole entry: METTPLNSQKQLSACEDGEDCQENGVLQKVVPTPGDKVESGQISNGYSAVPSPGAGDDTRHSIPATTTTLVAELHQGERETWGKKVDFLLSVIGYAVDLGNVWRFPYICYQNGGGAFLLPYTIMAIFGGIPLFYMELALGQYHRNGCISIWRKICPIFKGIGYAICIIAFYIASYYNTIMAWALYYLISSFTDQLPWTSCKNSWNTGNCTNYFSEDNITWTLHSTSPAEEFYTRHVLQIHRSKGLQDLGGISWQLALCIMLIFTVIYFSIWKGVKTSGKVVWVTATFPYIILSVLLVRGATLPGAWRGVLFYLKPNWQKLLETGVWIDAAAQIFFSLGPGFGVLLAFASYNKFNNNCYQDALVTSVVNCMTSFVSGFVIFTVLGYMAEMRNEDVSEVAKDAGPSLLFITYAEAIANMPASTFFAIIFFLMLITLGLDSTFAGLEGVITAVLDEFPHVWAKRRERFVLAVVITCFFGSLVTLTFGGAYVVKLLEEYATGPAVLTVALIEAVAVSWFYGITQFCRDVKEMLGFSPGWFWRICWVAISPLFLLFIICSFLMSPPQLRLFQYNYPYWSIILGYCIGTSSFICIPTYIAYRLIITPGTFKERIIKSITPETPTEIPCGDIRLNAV

Biological target: serotonine (5-hydroxythryptamine, 5-HT) reuptake (Homo sapiens, UniProt P31645)
Test: serotonine (5-HT) reuptake inhibiting activity (no method given)
Conditions: in combination with potent dopamine reuptake inhibiting activity

CN1[C@H]2CC[C@@H]1[C@H](COc1ccc(Cl)cc1)[C@@H](c1ccc(F)cc1)C2.Cl [(1R,2R,3S)-2-(4-Chlorophenoxy-methyl)-3-(4-fluorophenyl)tropane, hydrochloride]
serotonine (5-hydroxythryptamine, 5-HT) reuptake inhibiting activity: very potent
